Laboratory results as given in publication PMC11946513, “Modulation of the substrate preference of a MYST acetyltransferase by a scaffold protein” (The Journal of Biological Chemistry, 2025).

By UniProt entry, the sequences of proteins in these tests, tags left out. Residues count along the entry.
UniProt P55201, whole entry partner: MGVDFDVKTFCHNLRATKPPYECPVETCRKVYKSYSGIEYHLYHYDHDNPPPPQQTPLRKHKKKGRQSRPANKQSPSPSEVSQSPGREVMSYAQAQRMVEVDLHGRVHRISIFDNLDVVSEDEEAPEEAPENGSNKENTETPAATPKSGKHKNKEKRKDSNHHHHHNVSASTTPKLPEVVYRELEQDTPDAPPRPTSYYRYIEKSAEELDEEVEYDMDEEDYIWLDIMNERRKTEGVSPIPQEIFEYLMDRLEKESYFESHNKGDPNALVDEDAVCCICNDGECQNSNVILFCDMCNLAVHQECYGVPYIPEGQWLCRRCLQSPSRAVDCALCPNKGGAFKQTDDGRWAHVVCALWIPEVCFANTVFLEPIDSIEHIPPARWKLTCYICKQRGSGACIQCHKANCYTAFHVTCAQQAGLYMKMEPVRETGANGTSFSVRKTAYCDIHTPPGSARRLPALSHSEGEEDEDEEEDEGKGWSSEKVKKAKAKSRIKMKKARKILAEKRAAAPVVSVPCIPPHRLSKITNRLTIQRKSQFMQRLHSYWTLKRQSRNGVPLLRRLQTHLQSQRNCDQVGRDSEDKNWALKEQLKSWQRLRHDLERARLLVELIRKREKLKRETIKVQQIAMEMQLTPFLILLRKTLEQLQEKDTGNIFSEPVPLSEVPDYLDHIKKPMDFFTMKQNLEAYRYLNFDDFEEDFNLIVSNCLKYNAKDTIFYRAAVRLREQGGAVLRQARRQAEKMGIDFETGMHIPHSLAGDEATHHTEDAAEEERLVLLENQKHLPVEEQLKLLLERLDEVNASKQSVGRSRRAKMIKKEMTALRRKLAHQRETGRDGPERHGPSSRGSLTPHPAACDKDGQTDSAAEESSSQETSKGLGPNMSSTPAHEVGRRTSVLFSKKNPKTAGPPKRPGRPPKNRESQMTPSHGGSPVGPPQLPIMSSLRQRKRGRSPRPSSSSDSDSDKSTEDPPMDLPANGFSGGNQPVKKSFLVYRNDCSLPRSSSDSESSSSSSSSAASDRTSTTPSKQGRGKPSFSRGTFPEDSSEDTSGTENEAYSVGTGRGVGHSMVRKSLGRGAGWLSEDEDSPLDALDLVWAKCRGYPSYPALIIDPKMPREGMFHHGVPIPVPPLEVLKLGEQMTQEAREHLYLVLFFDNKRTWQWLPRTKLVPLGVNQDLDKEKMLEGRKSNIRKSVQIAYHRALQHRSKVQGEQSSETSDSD
UniProt Q92794, whole entry: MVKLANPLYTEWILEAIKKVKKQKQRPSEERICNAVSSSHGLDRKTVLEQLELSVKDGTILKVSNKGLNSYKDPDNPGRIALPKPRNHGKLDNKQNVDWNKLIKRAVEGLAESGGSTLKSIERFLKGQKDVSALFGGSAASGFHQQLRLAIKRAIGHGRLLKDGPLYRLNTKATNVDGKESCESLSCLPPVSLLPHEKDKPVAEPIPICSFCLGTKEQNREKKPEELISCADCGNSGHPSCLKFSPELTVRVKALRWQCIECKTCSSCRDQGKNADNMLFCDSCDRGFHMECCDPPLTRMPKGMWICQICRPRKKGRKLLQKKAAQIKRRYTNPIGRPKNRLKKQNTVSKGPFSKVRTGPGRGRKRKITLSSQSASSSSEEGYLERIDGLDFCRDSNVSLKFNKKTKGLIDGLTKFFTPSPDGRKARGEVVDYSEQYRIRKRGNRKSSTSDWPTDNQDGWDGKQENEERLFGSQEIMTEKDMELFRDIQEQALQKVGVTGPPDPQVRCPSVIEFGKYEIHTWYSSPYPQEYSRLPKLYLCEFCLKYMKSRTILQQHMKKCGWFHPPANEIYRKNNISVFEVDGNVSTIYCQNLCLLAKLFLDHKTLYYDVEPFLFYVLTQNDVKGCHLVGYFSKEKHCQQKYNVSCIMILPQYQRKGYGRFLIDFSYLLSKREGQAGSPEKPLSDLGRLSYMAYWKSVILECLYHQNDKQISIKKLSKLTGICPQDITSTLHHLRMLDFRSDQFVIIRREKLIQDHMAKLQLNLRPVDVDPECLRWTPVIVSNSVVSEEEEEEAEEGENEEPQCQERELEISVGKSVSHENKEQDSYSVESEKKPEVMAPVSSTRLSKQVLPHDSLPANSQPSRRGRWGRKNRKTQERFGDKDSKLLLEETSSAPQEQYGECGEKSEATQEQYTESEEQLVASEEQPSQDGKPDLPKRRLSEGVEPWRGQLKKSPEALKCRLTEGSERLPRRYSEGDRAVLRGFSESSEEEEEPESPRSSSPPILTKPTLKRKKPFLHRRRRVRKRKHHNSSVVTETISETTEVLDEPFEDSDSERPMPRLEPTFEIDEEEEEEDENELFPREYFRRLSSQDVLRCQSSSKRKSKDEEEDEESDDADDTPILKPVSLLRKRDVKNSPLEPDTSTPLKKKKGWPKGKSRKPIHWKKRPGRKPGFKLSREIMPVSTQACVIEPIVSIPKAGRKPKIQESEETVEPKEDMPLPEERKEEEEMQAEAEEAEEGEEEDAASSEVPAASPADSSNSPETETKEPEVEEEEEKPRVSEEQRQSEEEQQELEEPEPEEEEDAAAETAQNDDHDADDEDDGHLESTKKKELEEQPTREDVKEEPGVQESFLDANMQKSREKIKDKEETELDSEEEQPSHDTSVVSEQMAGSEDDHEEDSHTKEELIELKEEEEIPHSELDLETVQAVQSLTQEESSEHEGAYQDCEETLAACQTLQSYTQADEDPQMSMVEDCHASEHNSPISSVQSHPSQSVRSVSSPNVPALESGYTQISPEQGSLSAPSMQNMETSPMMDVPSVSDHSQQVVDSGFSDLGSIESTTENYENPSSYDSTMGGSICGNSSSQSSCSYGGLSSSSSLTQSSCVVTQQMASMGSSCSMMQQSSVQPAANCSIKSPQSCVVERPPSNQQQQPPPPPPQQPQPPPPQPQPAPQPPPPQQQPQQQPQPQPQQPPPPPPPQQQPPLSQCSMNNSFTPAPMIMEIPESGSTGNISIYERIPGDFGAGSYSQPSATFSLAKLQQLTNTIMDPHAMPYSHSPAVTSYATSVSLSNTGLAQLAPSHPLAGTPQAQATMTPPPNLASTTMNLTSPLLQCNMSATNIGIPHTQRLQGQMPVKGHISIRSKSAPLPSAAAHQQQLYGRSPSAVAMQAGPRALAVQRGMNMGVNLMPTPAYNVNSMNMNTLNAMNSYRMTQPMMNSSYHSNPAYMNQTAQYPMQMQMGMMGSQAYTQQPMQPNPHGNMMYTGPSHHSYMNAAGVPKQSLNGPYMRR
UniProt Q92794, 501-784 limits assumed: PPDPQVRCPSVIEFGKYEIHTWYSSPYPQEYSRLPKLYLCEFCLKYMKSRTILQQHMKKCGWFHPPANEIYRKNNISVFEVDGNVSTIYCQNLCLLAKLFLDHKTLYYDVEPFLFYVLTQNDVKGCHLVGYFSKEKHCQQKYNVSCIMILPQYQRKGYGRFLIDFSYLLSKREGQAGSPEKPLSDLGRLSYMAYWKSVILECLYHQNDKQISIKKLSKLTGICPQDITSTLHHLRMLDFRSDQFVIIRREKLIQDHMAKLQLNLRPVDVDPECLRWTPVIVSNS
UniProt Q8WYH8, whole entry partner: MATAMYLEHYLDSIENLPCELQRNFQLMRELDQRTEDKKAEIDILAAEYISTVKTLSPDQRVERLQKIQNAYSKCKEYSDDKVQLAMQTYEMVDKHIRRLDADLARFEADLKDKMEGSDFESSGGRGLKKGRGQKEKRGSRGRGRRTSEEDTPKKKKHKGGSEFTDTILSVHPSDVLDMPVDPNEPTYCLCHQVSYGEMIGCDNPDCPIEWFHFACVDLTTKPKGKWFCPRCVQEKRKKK

What was measured:
[1] = molecular target: MYST-BRPF1 2-protein complex (MYST 2-plex) (Homo sapiens, UniProt P55201+Q92794); assay: Steady-state acetyltransferase assay with H3 peptides, MYST 2-plex; details: for (kcat/KM)^app: 50 mM HEPES pH 7.5, 5 mM NaCl, 0.1 mM EDTA, 0.002% Tween-20, 20 μM AcCoA, 25 °C, average ± SD of 2 measurements, apparent value; for Km / kcatapp: conditions as E17; for fold-change in (kcat/KM)^app for H3.3 (15-36) versus H3 (1-21) or H3 (19-26) versus H3 (10-17): values in parentheses of Table 3
Description: (§1) All reactions were multiple-turnover, with substrates in excess (≥10-fold) of enzyme and, unless otherwise stated, were measured at 25 °C in the presence of 50 mM HEPES (pH 7.5), 5 mM NaCl, 0.1 mM EDTA, and 0.002% Tween-20. Enzyme and peptide were allowed to incubate at 25 °C for 10 min before initiating the reaction by adding AcCoA (20 μM). At various times, eight 2 μl aliquots were collected and transferred to 50 μl of 1% formic acid to quench the reaction. Acetyl-CoA and CoA were subsequently detected using a RapidFire 365 high-throughput SPE chromatography system coupled to a 6495 triple quadrupole mass spectrometer (Agilent Technologies) based on procedures described previously ([72], [73]). 42 uL of reaction timepoints were injected onto an Agilent C4 cartridge (40 μm, type A2) in 6 mM octylammonium acetate (GLSynthesis) and eluted with 25% acetonitrile, 25% acetone, and 50% 6 mM octylammonium acetate. RapidFire settings were as follows: aspiration time: 600 ms, load time: 4500 ms, elution time: 8000 ms, and re-equilibration time: 500 ms at a flow rate of 0.8 ml/min.
(§2) Samples were eluted into an Agilent 6495 triple quadrupole mass spectrometer with an Agilent Jet Stream source with ion funnel technology, set in the positive ion mode. A multiple reaction monitoring (MRM) protocol was optimized employing Q1 m/z ratios of 810.1 and 768.05 for acetyl-CoA and CoA, respectively. A second quadruple (Q2) was determined, using house nitrogen as the collision gas (fragmentor voltage = 380 V, collision energy = 30 V) with m/z values of 303.1 and 261.0 for acetyl-CoA and CoA, respectively.
(§3) Area under the curve (AUC) for acetyl-CoA and CoA were quantitated using RapidFire Integrator software (Agilent). The concentration of CoA was calculated from fraction (CoA) (AUC^CoA/(AUC^Acetyl-CoA + AUC^CoA)) multiplied by the concentration of acetyl-CoA used in acetyltransferase assays.
(§4) The active enzyme concentration for each form of KAT6A was obtained through tight-binding inhibition ([48]) by PF-9363, which binds to the KAT6A MYST domain with an inhibition constant (Ki) of ≈0.3 nM ([6]). Each form of KAT6A was incubated with acetyl-CoA (1–2 μM) and various concentrations of PF-9363 (0–1000 nM) for 15 to 30 min prior to initiating the reaction with H3 (1-21) (5–10 μM). The initial velocity measured at a given concentration of PF-9363 (Vi) was normalized with respect to the initial velocity in the absence of inhibitor (V0) and fit to Equation 1:(1) Vi/V0=1-([E]T+[I]+Ki,app)–([E]T+[I]+Ki,app)^2-4[E]T[I]/2[E]T where Ki,app is the apparent inhibition constant of PF-9363 and [E]T is the active enzyme concentration. The subscript “app” is included in Ki,app since acetyl-CoA competes with PF-9363 for binding to the MYST domain ([6]).
(§5) Reactions were performed under multiple-turnover conditions with excess AcCoA (20 μM) and peptide (1–3000 μM) relative to enzyme (10–100 nM). Reactions were followed for up to 20% product formation and linear fits of the data provided initial velocities (V), which were divided by the enzyme concentration ([E]T) determined from active site titration. V/[E]T was plotted as a function of [peptide] and fit by the Michaelis-Menten equation (Equation 2):(2) V/[E]T=kcat[peptide]/(KM+[peptide]) where kcat is the maximum rate of turnover and KM is the Michaelis-constant. To determine kcat/KM, the steady-state data were fit to a modified form of the Michaelis-Menten equation (Equation 3) ([58]):(3) V/[E]T=(kcat/KM)[peptide]/(1+(kcat/KM)[peptide]/kcat)
(§6) For H3 (10-17), H3 (19-26), and their chimeric peptides, exceedingly high peptide concentrations were needed to saturate acetyltransferase activity. The steady-state data were instead fit to a linear equation to obtain kcat/KM. Finally, for the KAT6A^FL 2- and 4-plexes as well as the MYST 2-plex, steady-state parameters include a superscript “app” to denote that they are apparent values since reactions with these forms of KAT6A may include unbound KAT6A^FL or MYST.

[2] = molecular target: KAT6A MYST domain (KAT6A 501–784) (Homo sapiens, UniProt Q92794); assay: Steady-state acetyltransferase assay with H3 peptides, KAT6A MYST domain; details: for (kcat/KM): 50 mM HEPES pH 7.5, 5 mM NaCl, 0.1 mM EDTA, 0.002% Tween-20, 20 μM AcCoA, 25 °C, CoA by RapidFire MS, average ± SD of 2 measurements; for Km: KM of peptide at 20 μM AcCoA, conditions as E1; for kcat: conditions as E1, average ± SD of 2 measurements; for fold-change in (kcat/KM) for H3.3 (15-36) versus H3 (1-21) or H3 (19-26) versus H3 (10-17): decrease for K23 peptide relative to K14 peptide
Description: as §1, §2, §3, §4, §5, §6

[3] = molecular target: KAT6A^FL-BRPF1 2-protein complex (KAT6A^FL 2-plex) (Homo sapiens, UniProt P55201+Q92794); assay: Steady-state acetyltransferase assay with H3 peptides, KAT6A^FL 2-plex; details: for (kcat/KM)^app: 50 mM HEPES pH 7.5, 5 mM NaCl, 0.1 mM EDTA, 0.002% Tween-20, 20 μM AcCoA, 25 °C, average ± SD of 2 measurements, apparent value; for Km / kcatapp: conditions as E13; for fold-change in (kcat/KM)^app for H3.3 (15-36) versus H3 (1-21) or H3 (19-26) versus H3 (10-17): values in parentheses of Table 3
Description: as §1, §2, §3, §4, §5, §6

[4] = molecular target: KAT6A^FL 4-plex (KAT6A^FL, BRPF1, ING5, MEAF6) (Homo sapiens, UniProt P55201+Q8WYH8+Q92794+Q9HAF1); assay: Steady-state acetyltransferase assay with H3 peptides, KAT6A^FL 4-plex; details: for (kcat/KM)^app: 50 mM HEPES pH 7.5, 5 mM NaCl, 0.1 mM EDTA, 0.002% Tween-20, 20 μM AcCoA, 25 °C, average ± SD of 2 measurements, apparent value; for Km / kcatapp: conditions as E9
Description: as §1, §2, §3, §4, §5, §6

KAT6A^FL = KAT6A^FL (Homo sapiens, UniProt Q92794); assay: Steady-state acetyltransferase assay with H3 peptides, KAT6A^FL; details: for (kcat/KM): 50 mM HEPES pH 7.5, 5 mM NaCl, 0.1 mM EDTA, 0.002% Tween-20, 20 μM AcCoA, 25 °C, average ± SD of 2 measurements; for Km: KM of peptide at 20 μM AcCoA; for Km / kcat: conditions as E5
Description: as §1, §2, §3, §4, §5, §6

Structure (SMILES) | (kcat/KM)^app [1] | Km [1] | kcatapp [1] | fold-change in (kcat/KM)^app for H3.3 (15-36) versus H3 (1-21) or H3 (19-26) versus H3 (10-17) [1] | (kcat/KM) [2] | Km [2] | kcat [2] | fold-change in (kcat/KM) for H3.3 (15-36) versus H3 (1-21) or H3 (19-26) versus H3 (10-17) [2] | fold less efficient acetylation compared to H3 (1-21) and H3.3 (15-36) [3] | (kcat/KM)^app [3] | Km [3] | kcatapp [3] | fold-change in (kcat/KM)^app for H3.3 (15-36) versus H3 (1-21) or H3 (19-26) versus H3 (10-17) [3] | fold lower (kcat/KM)^app on truncation of H3 (1-21) to H3 (10-17) and H3.3 (15-36) to H3 (19-26) [4] | (kcat/KM)^app [4] | Km [4] | kcatapp [4] | fold lower kcat/KM on truncation of H3 (1-21) to H3 (10-17) and H3.3 (15-36) to H3 (19-26) (KAT6A^FL) | (kcat/KM) (KAT6A^FL) | Km (KAT6A^FL) | further results
CC(C)C[C@H](NC(=O)[C@@H](N)CCC(N)=O)C(=O)N[C@@H](C)C(=O)N[C@H](C(=O)N[C@@H](CCCCN)C(=O)N[C@@H](C)C(=O)N[C@@H](C)C(=O)N[C@@H](CCCNC(=N)N)C(=O)O)[C@@H](C)O | 3 ± 1.2 M⁻¹ s⁻¹ | ≥ 1000 µM | ≥0.00767 s⁻¹ | 4 fold | 0.683 ± 0.1 M⁻¹ s⁻¹ | ≥ 1000 µM | ≥0.00147 s⁻¹ | 50 fold | approximately 10^3 fold | 23.3 M⁻¹ s⁻¹ and 23.3 ± 3.3 M⁻¹ s⁻¹ | ≥ 1000 µM | ≥0.0367 s⁻¹ | 0.28 fold | 4930 fold | 18.3 ± 3.3 M⁻¹ s⁻¹ | ≥ 1000 µM | ≥0.0333 s⁻¹ | 700 fold | 0.267 ± 0.033 M⁻¹ s⁻¹ | ≥ 1000 µM | kcat (KAT6A^FL): ≥0.00125 s⁻¹
C[C@H](NC(=O)[C@H](CCCCN)NC(=O)CNC(=O)CNC(=O)[C@@H](NC(=O)[C@@H](N)CO)[C@@H](C)O)C(=O)N1CCC[C@H]1C(=O)N[C@@H](CCCNC(=N)N)C(=O)O | 11.2 ± 1 M⁻¹ s⁻¹ | ≥ 1000 µM | ≥0.0233 s⁻¹ | 1 fold | 31.7 ± 8.3 M⁻¹ s⁻¹ | ≥ 1000 µM | ≥0.0583 s⁻¹ | 1 fold | approximately 10^3 fold | 6.5 M⁻¹ s⁻¹ and 6.5 ± 1 M⁻¹ s⁻¹ | ≥ 1000 µM | ≥0.012 s⁻¹ | 1 fold | 1900 fold | 5 ± 1.2 M⁻¹ s⁻¹ | ≥ 1000 µM | ≥0.00667 s⁻¹ | 2470 fold | 9.83 ± 5 M⁻¹ s⁻¹ | ≥ 1000 µM | fold-change in (kcat/KM)^app for H3.3 (15-36) versus H3 (1-21) or H3 (19-26) versus H3 (10-17) ([4]; values in parentheses of Table 3): 1 fold; kcat (KAT6A^FL): ≥0.0267 s⁻¹; fold-change in (kcat/KM) for H3.3 (15-36) versus H3 (1-21) or H3 (19-26) versus H3 (10-17) (KAT6A^FL; decrease for K23 peptide relative to K14 peptide): 1 fold

Where “and” joins values, the source holds several entries; their conditions need not be identical. Equal entries are not always repeated. The structures given here were assigned with low confidence; some may be wrong.
